Measurements reported in paper PMC7862700.
This is a selection; strong and weak results do not stand in their true shares. At the low end of the ranking the order means little.

biological target: T1, FEV (UniProt Q99581); test: DAPPL (digital affinity profiling via proximity ligation, sequencing); details: 10 mM Tris-HCl pH 7.5, 50 mM NaCl, 1 mM DTT, 4% glycerol, room temperature, 30 min; GST-TFs on glutathione beads, 16-mer random dsDNA library, 0.1% …; high values mean tight binding; double strand, one strand shown; scale: fold enrichment (6-mer frequency, TF over GST control)
T1 sequence: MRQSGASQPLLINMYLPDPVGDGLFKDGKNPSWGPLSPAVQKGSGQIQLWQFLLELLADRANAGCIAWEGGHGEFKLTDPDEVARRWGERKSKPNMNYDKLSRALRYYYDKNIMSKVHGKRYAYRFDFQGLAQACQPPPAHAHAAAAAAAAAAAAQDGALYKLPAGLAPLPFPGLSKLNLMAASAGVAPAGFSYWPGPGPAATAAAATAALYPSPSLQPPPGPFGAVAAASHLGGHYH

For ACTGGT, which binding signal is on record?
Its binding signal is 0.966.

For CGCTGC, which binding signal is on record?
The binding signal was 1.14.

Which binding signal does the source give for TCCACG here?
The binding signal was 0.994.

For AGTTGC, which binding signal is on record?
Its binding signal is 0.982.

TGGGCT was tested. Which binding signal did it give?
Its binding signal is 1.35.

AGGAAG was tested. Which binding signal did it give?
Its binding signal is 1.24.

How did the binding signal turn out when CAAATG was run?
The binding signal was 1.11.

Which binding signal does the source give for CTTCCA here?
Its binding signal is 1.43.

CACTGT was tested. Which binding signal did it give?
The binding signal was 1.09.

For CCCGAT, which binding signal is on record?
The binding signal was 1.27.

How did the binding signal turn out when CCCTGT was run?
The binding signal was 1.04.

How did the binding signal turn out when CGACAA was run?
The binding signal was 1.3.

How did the binding signal turn out when GACGAC was run?
Its binding signal is 0.985.

For GAACTG, which binding signal is on record?
The binding signal was 0.929.

How did the binding signal turn out when ACCCAT was run?
Its binding signal is 1.17.

Which binding signal does the source give for CTGTGC here?
The binding signal was 1.03.

Which binding signal does the source give for CGGAAG here?
The binding signal was 3.68.

For AGTAGC, which binding signal is on record?
Its binding signal is 1.04.

Which binding signal does the source give for GATCCA here?
Its binding signal is 1.07.

How did the binding signal turn out when AATTGA was run?
The binding signal was 1.11.

CCCGTC was tested. Which binding signal did it give?
The binding signal was 1.09.

For CTGGCT, which binding signal is on record?
The binding signal was 1.16.

For ATACGA, which binding signal is on record?
The binding signal was 1.16.

Which binding signal does the source give for ACGCAC here?
Its binding signal is 1.05.

How did the binding signal turn out when CTCGAG was run?
The binding signal was 1.2.

CGTTTG was tested. Which binding signal did it give?
Its binding signal is 0.982.

Which binding signal does the source give for GACTTT here?
The binding signal was 1.14.

Which binding signal does the source give for ACGGCT here?
The binding signal was 1.2.

With TGGGAA as the sequence, how does the binding signal read?
The binding signal was 0.95.

Which binding signal does the source give for CGCCAT here?
Its binding signal is 0.999.

CTTAAC was tested. Which binding signal did it give?
The binding signal was 1.27.

Which binding signal does the source give for CGGTCT here?
Its binding signal is 1.3.

With CCACCG as the sequence, how does the binding signal read?
Its binding signal is 1.26.

For TTTTTT, which binding signal is on record?
The binding signal was 1.17.

Which binding signal does the source give for ATGCAG here?
The binding signal was 1.11.

How did the binding signal turn out when TGCCAC was run?
Its binding signal is 1.32.

ACGGTA was tested. Which binding signal did it give?
The binding signal was 0.963.

GGATGG was tested. Which binding signal did it give?
Its binding signal is 0.996.

AACGCC was tested. Which binding signal did it give?
The binding signal was 1.11.
